In PubChem BioAssay AID248 (DTP/NCI, 2004):
The list does not hold the whole screen: it is rich in T/C values a quarter to a half above the control, in often repeated tests (any T/C) and in doses without a T/C. Other doses and runs of a compound stand elsewhere. T/C is the treated group as % of the vehicle group. Some doses have a count of surviving animals in place of a T/C: the source holds a T/C of zero for them, seemingly a mark for toxic or unscored doses. Some survivor counts are full or nearly so, which does not show that the dose was tolerated: survival well below the control is almost never listed, so the zero probably covers shortened survival too. Survivors were counted at the toxicity check, usually on the fifth day, unless a day is given; later deaths do not show. Schedule codes are those of the source, read here as Q, the interval in days (D) or hours (H), X, the number of doses. Some schedules carry Z or #; the key to these is not given. Where survival is the endpoint, this PubChem deposit counts one and a half times the control or more as active, and values a quarter to a half above the control carry no call in these data; other NCI protocols may use other cut-offs.

Test system: L1210 leukemia ip in BDF1 mice, survival T/C
Experiment: NCI In Vivo Anticancer Drug Screen. Data for tumor model L1210 Leukemia (intraperitoneal) in B6D2F1 (BDF1) mice
Conditions: T/C endpoint: mean survival time, higher T/C = longer survival
[1] = dose: 75.0 mg/kg/injection, schedule: Q01DX001 (ip), vehicle: saline
[2] = dose: 150.0 mg/kg/injection, schedule: Q01DX001 (ip), vehicle: saline
[3] = dose: 300.0 mg/kg/injection, schedule: Q01DX001 (ip), vehicle: saline
[4] = dose: 200.0 mg/kg/injection, schedule: Q04DX003 (ip), vehicle: Klucel (hydroxypropylcellulose) (HPC)
[5] = dose: 400.0 mg/kg/injection, schedule: Q04DX003 (ip), vehicle: Klucel (hydroxypropylcellulose) (HPC)
[6] = dose: 200.0 mg/kg/injection, schedule: Q04DX003 (ip), vehicle: saline with Tween-80
[7] = dose: 400.0 mg/kg/injection, schedule: Q04DX003 (ip), vehicle: saline with Tween-80
[8] = dose: 400.0 mg/kg/injection, schedule: Q04DX003 (ip), vehicle: saline
[9] = dose: 40.0 mg/kg/injection, schedule: Q04DX003 (ip), vehicle: saline

SMILES: O=C(/C=C\c1ccc(/C=C/C(=O)Nc2cccc(C3=NCCN3)c2)cc1)Nc1cccc(C2=NCCN2)c1
- T/C (dose: 15.0 mg/kg/injection, schedule: Q01DX Z (ip), vehicle: saline): 133 % of control
- survivor count (dose: 480.0 mg/kg/injection, schedule: Q01DX Z (ip), vehicle: saline): 3 of 6

SMILES: CCN=C(c1ccc(NC(=O)c2ccc(C(=O)Nc3ccc(C(=NCC)N(CC)CC)cc3)cc2)cc1)N(CC)CC
- survivor count (dose: 3.75 mg/kg/injection, schedule: Q01DX Z (ip), vehicle: carboxymethylcellulose (CMC)): 0 of 6
- survivor count (dose: 7.5 mg/kg/injection, schedule: Q01DX Z (ip), vehicle: carboxymethylcellulose (CMC)): 0 of 6
- survivor count (dose: 15.0 mg/kg/injection, schedule: Q01DX Z (ip), vehicle: carboxymethylcellulose (CMC)): 0 of 6
- survivor count (dose: 30.0 mg/kg/injection, schedule: Q01DX Z (ip), vehicle: carboxymethylcellulose (CMC)): 0 of 6
- survivor count (dose: 60.0 mg/kg/injection, schedule: Q01DX Z (ip), vehicle: carboxymethylcellulose (CMC)): 0 of 6
- survivor count (dose: 120.0 mg/kg/injection, schedule: Q01DX Z (ip), vehicle: carboxymethylcellulose (CMC)): 0 of 6

SMILES: CN(C)N1CCC2(CCC(C(C)(C)C)CC2)CC1
- survivor count (dose: 200.0 mg/kg/injection, schedule: Q01DX001 (ip), vehicle: carboxymethylcellulose (CMC)): 0 of 4
- survivor count (dose: 400.0 mg/kg/injection, schedule: Q01DX001 (ip), vehicle: carboxymethylcellulose (CMC)): 0 of 4

SMILES: Cc1ccc(S(=O)(=O)OCC23CCC2(COS(=O)(=O)c2ccc(C)cc2)COC3)cc1 (stereo unspecified)
- survivor count (dose: 150.0 mg/kg/injection, schedule: Q01DX009 (ip), vehicle: saline): 6 of 6

SMILES: O=C(O)c1cc([N+](=O)[O-])ccc1F
- survivor count (dose: 300.0 mg/kg/injection, schedule: Q01DX001 (ip), vehicle: acetone): 3 of 6

SMILES: C/C=C/C1=C(Cl)C(=O)[C@@H](Cl)[C@@]1(O)C(=O)OC
- survivor count (dose: 20.0 mg/kg/injection, schedule: Q01DX001 (ip), vehicle: saline): 6 of 6
- survivor count (dose: 40.0 mg/kg/injection, schedule: Q01DX001 (ip), vehicle: saline): 3 of 6
- survivor count [1]: 0 of 6
- survivor count [2]: 0 of 6
- survivor count [3]: 0 of 6

SMILES: Cn1c(=N)sc2ccc3ccccc3c21
- survivor count [4]: 6 of 6
- survivor count [5]: 6 of 6

SMILES: O=C(Nc1cccc(C2=NCCN2)c1)Nc1ccc(NC(=O)Nc2cccc(C3=NCCN3)c2)c(Cl)c1
- T/C (dose: 2.0 mg/kg/injection, schedule: Q01DX Z (ip), vehicle: carboxymethylcellulose (CMC)): 135 % of control
- T/C (dose: 4.0 mg/kg/injection, schedule: Q01DX Z (ip), vehicle: carboxymethylcellulose (CMC)): 141 % of control
- T/C (dose: 8.0 mg/kg/injection, schedule: Q01DX Z (ip), vehicle: carboxymethylcellulose (CMC)): 148 % of control
- T/C (dose: 62.0 mg/kg/injection, schedule: Q01DX Z (ip), vehicle: water): 130 % of control
- survivor count (dose: 125.0 mg/kg/injection, schedule: Q01DX Z (ip), vehicle: water): 4 of 6
- survivor count (dose: 250.0 mg/kg/injection, schedule: Q01DX Z (ip), vehicle: water): 0 of 6
- survivor count (dose: 500.0 mg/kg/injection, schedule: Q01DX Z (ip), vehicle: water): 0 of 6

SMILES: O=Nc1ccc(SCC(=O)NNC(=O)CSc2ccc(N=O)cc2[N+](=O)[O-])cc1
- survivor count [6]: 0 of 3
- survivor count [7]: 0 of 3

SMILES: C=CCOCC(O)CN(C)C1CCCCC1 (stereo unspecified)
- survivor count (dose: 200.0 mg/kg/injection, schedule: Q01DX009 (ip), vehicle: saline): 0 of 6
- survivor count (dose: 200.0 mg/kg/injection, schedule: Q04DX003 (ip), vehicle: saline): 0 of 6
- survivor count [8]: 0 of 6

SMILES: OCCN1CCN(C(=S)[S-])CC1.OCCN1CCN(C(=S)[S-])CC1.[Zn]
- survivor count [9]: 0 of 6
- survivor count [1]: 0 of 6
- survivor count [2]: 0 of 6
- survivor count [3]: 0 of 6

SMILES: Cc1nc2c(N)nnc(N)c2nc1C
- survivor count (dose: 200.0 mg/kg/injection, schedule: Q01DX009 (ip), vehicle: Klucel (hydroxypropylcellulose) (HPC)): 1 of 6
- survivor count (dose: 400.0 mg/kg/injection, schedule: Q01DX009 (ip), vehicle: Klucel (hydroxypropylcellulose) (HPC)): 0 of 6

SMILES: O=[N+]([O-])c1cc(Cl)cc2c1-c1c(Cl)cc(Cl)cc1/C2=N/O
- survivor count (dose: 100.0 mg/kg/injection, schedule: Q01DX009 (ip), vehicle: Klucel (hydroxypropylcellulose) (HPC)): 4 of 6
- survivor count [4]: 6 of 6
- survivor count [5]: 6 of 6

SMILES: N=C(N)SCCN
- survivor count (dose: 400.0 mg/kg/injection, schedule: Q01DX009 (ip), vehicle: saline): 0 of 6
- survivor count (dose: 800.0 mg/kg/injection, schedule: Q01DX001 (ip), vehicle: saline): 3 of 6

SMILES: O=C(C=C(C(F)(F)F)C(F)(F)F)c1ccc(Cl)c2ccccc12
- survivor count (dose: 50.0 mg/kg/injection, schedule: Q01DX009 (ip), vehicle: saline with Tween-80): 1 of 6
- survivor count (dose: 100.0 mg/kg/injection, schedule: Q04DX003 (ip), vehicle: saline with Tween-80): 3 of 6

SMILES: O=S(=O)(O)c1cc(O)c2cc(Nc3ccccc3)ccc2c1
- survivor count [8]: 3 of 6

SMILES: CC(C)=CCN(CC=C(C)C)CCC(C#N)(c1cccc2ccccc12)C(C)C (stereo unspecified)
- survivor count (dose: 50.0 mg/kg/injection, schedule: Q01DX009 (ip), vehicle: Klucel (hydroxypropylcellulose) (HPC)): 6 of 6

SMILES: NC(N)=N/N=C/c1c[nH]c2ccc(OCc3ccccc3)cc12
- survivor count (dose: 60.0 mg/kg/injection, schedule: Q01DX Z (ip), vehicle: methylcellulose (MC)): 1 of 6
- survivor count (dose: 60.0 mg/kg/injection, schedule: Q01DX Z (oral), vehicle: methylcellulose (MC)): 0 of 6
- survivor count (dose: 120.0 mg/kg/injection, schedule: Q01DX Z (ip), vehicle: methylcellulose (MC)): 0 of 6
- survivor count (dose: 120.0 mg/kg/injection, schedule: Q01DX Z (oral), vehicle: methylcellulose (MC)): 1 of 6

SMILES: CC12CCC(CC(=O)O1)C2(C)C (stereo unspecified)
- survivor count [2]: 1 of 6
- survivor count [3]: 0 of 6

SMILES: Cc1nc2c(o1)CCCC2
- survivor count (dose: 400.0 mg/kg/injection, schedule: Q04DX002 (ip), vehicle: carboxymethylcellulose (CMC)): 3 of 3

SMILES: CCCCC[CH2][Sn]([CH2]C)([CH2]C)[O]C(C)=O
- survivor count (dose: 100.0 mg/kg/injection, schedule: Q01DX001 (ip), vehicle: saline with Tween-80): 0 of 6
- survivor count (dose: 200.0 mg/kg/injection, schedule: Q01DX001 (ip), vehicle: saline with Tween-80): 0 of 6
- survivor count (dose: 400.0 mg/kg/injection, schedule: Q01DX001 (ip), vehicle: saline with Tween-80): 1 of 6

SMILES: COc1cc(NC(C)CCCN)c2ncccc2c1 (stereo unspecified)
- survivor count [6]: 0 of 6
- survivor count [7]: 0 of 6

SMILES: CCCCN(CC)C(=S)[S-].CCCCN(CC)C(=S)[S-].[Zn]
- survivor count [9]: 5 of 6
- survivor count [1]: 2 of 6
- survivor count [2]: 0 of 6
- survivor count [3]: 0 of 6

SMILES: CC(Cc1ccccc1)NC(=O)CCNNC(=O)c1ccncc1 (stereo unspecified)
- survivor count (dose: 25.0 mg/kg/injection, schedule: Q04DX003 (ip), vehicle: Klucel (hydroxypropylcellulose) (HPC)): 4 of 4
- survivor count [5]: 4 of 4

SMILES: CC1(C)C(N2CCOCC2)CS1(=O)=O (stereo unspecified)
- survivor count [7]: 1 of 6

SMILES: C=CC12CN(C)C3C4COC(CC41)C1(C(=O)Nc4ccccc41)C32 (stereo unspecified)
- survivor count (dose: 150.0 mg/kg/injection, schedule: Q01DX001 (ip), vehicle: other): 3 of 6
- survivor count (dose: 300.0 mg/kg/injection, schedule: Q01DX001 (ip), vehicle: other): 0 of 6

SMILES: CCCCCCCCCCCCOP(N)(=O)OCCCCCCCCCCCC
- survivor count [8]: 3 of 6

SMILES: Cc1cc(SC#N)ccc1O
- survivor count (dose: 100.0 mg/kg/injection, schedule: Q04DX002 (ip), vehicle: other): 0 of 3
- survivor count (dose: 200.0 mg/kg/injection, schedule: Q04DX002 (ip), vehicle: other): 0 of 3
- survivor count (dose: 400.0 mg/kg/injection, schedule: Q04DX002 (ip), vehicle: other): 0 of 3
